US8748566B2, “Pharmacologically active antiviral peptides and methods of use” (priority 2000, dated 2014)
Not every detail of the peptide structures is certain; ends, links or a residue may be inferred. Ends that are not written are not given here.

Tested on: HSV-1 KOS virions
Assay: Electron microscopy of peptide-treated virions (aggregation)
Conditions: 25 μM peptide, purified virus particles
Method: Purified HSV-1 KOS virions (2.5×10^7 pfu/ml) according to Visalli et al., Virus Res. 29:167 (1993) were treated with 25 μM antiviral peptide SEQ ID NO:1 or the control peptide EBX (SEQ ID NO: 17) in 40 μl serum-free DMEM buffered with 25 mM Hepes (pH 7.4) for 5 to 60 min at 4 or 23° C. Aliquots (10 μl) were adsorbed to pioloform poly-L-lysine-coated grids for 5 min at 23° C. Grids were rinsed with PBS, stained with 2% phosphotungstic acid (PTA) in water adjusted to pH ˜6 and air dried. Alternatively, virus was pre-adsorbed to grids and treated with peptides thereafter. A total of 4×10^9 pfu/ml of purified HSV-1 KOS in 5 μl PBS was applied to the coated grids for 5 min at 23° C., and the grids were rinsed once with serum-free DMEM buffered with 25 mM Hepes (pH 7.4) and treated with 15 μl of 5 mM EB or EBX in the same medium for 30 min at 37° C. The pH of highly concentrated solutions of antiviral peptide SEQ ID NO:1 and EBX was re-adjusted to 7.4 with NaOH prior to use. To prevent evaporation of the peptide-containing solutions, each grid was held in a Hiraoka flexible staining plate and covered with miniature bell jar made from an 0.5 ml polypropylene micro-centrifuge tubes, small enough for the 15 μl to fill half of the bell jar facing the coated surface of the grid. The entire assembly was then incubated in a moist chamber for 30 min at 37° C. […]

## RRKKLAALPLVLAAPLAVLA [EBX, RRKKLAALPLVLAAPLAVLA, reference compound]
  state of virus particles by electron microscopy: nearly all found individually and uniformly scattered over the grid surface
